Experimental findings from PubChem BioAssay AID288 (DTP/NCI, 2004) are described below.

The test system of the assay is BDF1 mice, M5076 sarcoma s.c., survival/tumor T/C. Briefly: NCI In Vivo Anticancer Drug Screen. Data for tumor model Sarcoma M5076 (subcutaneous) in B6D2F1 (BDF1) mice. On the procedure:
The antitumor activity of compounds was measured in mice bearing transplantable tumors. Survival or tumor size were measured and the results are expressed as the measurement made in the treated group (T) divided by the measurement made in the vehicle treated control group (C). The tumor model used in this assay is Sarcoma M5076 (subcutaneous) in B6D2F1 (BDF1) mice

The list is a part of this screen's results and no random one: it is rich in T/C values a quarter to a half above the control, in often repeated tests (any T/C) and in doses without a T/C. Further doses and runs are listed elsewhere. T/C gives the treated animals as a percentage of the vehicle group. Schedule codes are those of the source, taken here to give the interval after Q, in days (D) or hours (H), and the number of doses after X. Some doses have a count of surviving animals in place of a T/C: the source files T/C as zero there, which appears to mark a toxic dose or a test without result, not a measured value. Some doses without a T/C left all or most animals alive at the check, yet need not have been tolerated: survival well below the control is almost never listed, so the zero probably covers shortened survival too. Counts of survivors are from the toxicity check (mostly the fifth day) where no day follows; animals may have died later. Where survival is the endpoint, the PubChem record calls one and a half times the control and up active, and a quarter to a half above the control has no call in these data; cut-offs in other NCI protocols can differ. Some T/C values are followed by the survivors on the day toxicity was checked, most often the fifth; where none is given, no animal had died by that day. Some entries hold several experiments; the results are listed from low to high. Numbered stars: 1 amine (or outer) side, 2 acyl side, 3 side chain; on linkers, the order of the positions; unused ones are H or OH. Bridge positions count the residues as written; N and C are the ends. Square brackets hold non-standard residues; d marks the D form. Peptide text beside a SMILES is read from it. I, II: the chains in the order shown. * marks the point of attachment. ξ: configuration not given here. Quinaldoyl(3-OH,6-OMe) = COc1ccc2nc(C(=O)*)c(O)cc2c1; X2 = CC(=O)OC1CC=NN([*:1])C1C(=O)[*:2]; ξNMeVal(3-OH) = CNC(C(=O)O)C(C)(C)O; X3 = O=C(C1CCCNN1[*:1])[*:2]; Sar = CNCC(=O)O

Take `CC1(C)COCN1COCCOCN1COCC1(C)C`: the survivor count (T/C endpoint: median survival time, dose: 200.0 mg/kg/injection, schedule: Q04DX003 (ip), vehicle: saline, higher T/C = longer survival) is given as 6 of 10 on day 72 and the survivor count (T/C endpoint: median survival time, dose: 400.0 mg/kg/injection, schedule: Q04DX003 (ip), vehicle: saline, higher T/C = longer survival) is 0 of 10 on day 72.
With `OCCNCCN=C1CCC(=NCCNCCO)CC1`, the survivor count was 0 of 10 on day 9 (T/C endpoint: median survival time, dose: 200.0 mg/kg/injection, schedule: Q01DX009 (ip), vehicle: saline with Tween-80, higher T/C = longer survival) and 0 of 10 on day 20 (T/C endpoint: median tumor weight (est.), dose: 200.0 mg/kg/injection, schedule: Q01DX009 (ip), vehicle: saline with Tween-80, higher T/C = larger tumour).
For the compound `CCCCCCC(=O)O[C@H]1CC[C@H]2[C@@H]3CCC4=CC(=O)CC[C@]4(C)[C@H]3CC[C@]12C`, the T/C (T/C endpoint: mean tumor weight, dose: 7.5 mg/kg/injection, schedule: Q02DX011 (ip), vehicle: Klucel (hydroxypropylcellulose) (HPC), evaluated on day 22, higher T/C = larger tumour) was 136 % of control.
Take `CSC1SCC2C(=O)N(C)C(C(C)C)C(=O)OCC(NC(=O)c3cnc4ccccc4n3)C(=O)NC(C)C(=O)N(C)C1C(=O)N(C)C(C(C)C)C(=O)OCC(NC(=O)c1cnc3ccccc3n1)C(=O)NC(C)C(=O)N2C` (stereo not given): the survivor count is on record as 2 of 10 (T/C endpoint: median survival time, dose: 0.24 mg/kg/injection, schedule: Q04DX003 (ip), vehicle: saline with Tween-80, higher T/C = longer survival) and 0 of 10 (T/C endpoint: median survival time, dose: 0.48 mg/kg/injection, schedule: Q04DX003 (ip), vehicle: saline with Tween-80, higher T/C = longer survival).
In the case of `CS(=O)(=O)OCCCCOS(C)(=O)=O`, the survivor count (T/C endpoint: mean tumor weight, dose: 30.0 mg/kg/injection, schedule: Q02DX011 (ip), vehicle: Klucel (hydroxypropylcellulose) (HPC), higher T/C = larger tumour) is given as 5 of 10 on day 22 and the survivor count (T/C endpoint: mean tumor weight, dose: 60.0 mg/kg/injection, schedule: Q02DX011 (ip), vehicle: Klucel (hydroxypropylcellulose) (HPC), higher T/C = larger tumour) is listed as 0 of 10 on day 22.
Consider `COC12C(COC(N)=O)C3=C(C(=O)C(C)=C(N)C3=O)N1CC1C2N1C` (stereo not given), for which the survivor count (T/C endpoint: median tumor weight (est.), dose: 12.0 mg/kg/injection, schedule: Q02DX011 (ip), vehicle: saline, higher T/C = larger tumour) is on record as 2 of 10 on day 22.
Turning to `CN(N=O)C(=O)N[C@@H](C=O)[C@@H](O)[C@H](O)[C@H](O)CO`, the survivor count reads like this: (T/C endpoint: mean tumor weight, dose: 150.0 mg/kg/injection, schedule: Q02DX011 (ip), vehicle: other, higher T/C = larger tumour) 0 of 10 on day 22; (T/C endpoint: median tumor weight (est.), dose: 150.0 mg/kg/injection, schedule: Q02DX011 (ip), vehicle: other, higher T/C = larger tumour) 0 of 10 on day 22.
`Nc1nc([Se])c2ncn(C3OC(CO)C(O)C3O)c2n1` (stereo not given): the T/C (T/C endpoint: median survival time, dose: 32.0 mg/kg/injection, schedule: Q01DX009 (ip), vehicle: saline, higher T/C = longer survival) was 134 % of control. The survivor count by setting is: (T/C endpoint: median survival time, dose: 32.0 mg/kg/injection, schedule: Q01DX009 (ip), vehicle: suspension in saline, higher T/C = longer survival) 9 of 10 on day 9; (T/C endpoint: median survival time, dose: 64.0 mg/kg/injection, schedule: Q01DX009 (ip), vehicle: suspension in saline, higher T/C = longer survival) 3 of 10 on day 9; (T/C endpoint: median tumor weight (est.), dose: 32.0 mg/kg/injection, schedule: Q01DX009 (ip), vehicle: suspension in saline, higher T/C = larger tumour) 3 of 10 on day 20; (T/C endpoint: median tumor weight (est.), dose: 64.0 mg/kg/injection, schedule: Q01DX009 (ip), vehicle: suspension in saline, higher T/C = larger tumour) 0 of 10 on day 20.
On to `CN(C)CCCNc1c2ccccc2nc2cccc([N+](=O)[O-])c12`, for which, under “T/C endpoint: median tumor weight (est.), dose: 16.0 micrograms/kg/injection, schedule: Q02DX011 (ip), vehicle: saline, evaluated on day 22, higher T/C = larger tumour”, the T/C was 128 % of control.
Turning to `Nc1ncnc2c1ccn2C1OC(CO)C(O)C1O` (stereo not given), the T/C (T/C endpoint: mean tumor weight, dose: 0.38 mg/kg/injection, schedule: Q02DX011 (ip), vehicle: saline, evaluated on day 22, higher T/C = larger tumour) is 130 % of control.
Consider `CNC(=O)c1ccccc1C1(O)c2ccccc2CCc2ccccc21`, for which the survivor count (T/C endpoint: median survival time, dose: 100.0 mg/kg/injection, schedule: Q01DX009 (ip), vehicle: saline with Tween-80, higher T/C = longer survival) was 10 of 10 on day 9.
With `Cc1cc(C)nc(NS(=O)(=O)c2ccc(NC(=O)C(Cl)(Cl)Cl)cc2)n1`, where the note is “T/C endpoint: median tumor weight (est.), dose: 50.0 mg/kg/injection, schedule: Q01DX009 (ip), vehicle: saline with Tween-80, evaluated on day 20, higher T/C = larger tumour”, the T/C is 135 % of control.
With `COc1ccc2nc(C(=O)NC3COC(=O)C(C(C)(C)O)N(C)C(=O)CN(C)C(=O)CNC(=O)C4CCCNN4C(=O)C(NC(=O)c4nc5ccc(OC)cc5cc4O)COC(=O)C(C(C)(C)O)N(C)C(=O)CN(C)C(=O)CNC(=O)C4C(OC(C)=O)CC=NN4C3=O)c(O)cc2c1` (stereo not given) (I: {Quinaldoyl(3-OH,6-OMe)}-S[X2]G[Sar][ξNMeVal(3-OH)] / II: {Quinaldoyl(3-OH,6-OMe)}-S[X3]G[Sar][ξNMeVal(3-OH)]; ester I:1-II:C, I:C-II:1; configuration not given here), the survivor count runs as follows: (T/C endpoint: median survival time, dose: 80.0 micrograms/kg/injection, schedule: Q01DX009 (ip), vehicle: Klucel (hydroxypropylcellulose) (HPC), higher T/C = longer survival) 0 of 10 on day 9; (T/C endpoint: median tumor weight (est.), dose: 40.0 micrograms/kg/injection, schedule: Q01DX009 (ip), vehicle: DMSO, higher T/C = larger tumour) 5 of 10 on day 20; (T/C endpoint: median tumor weight (est.), dose: 80.0 micrograms/kg/injection, schedule: Q01DX009 (ip), vehicle: DMSO, higher T/C = larger tumour) 0 of 10 on day 20.
As to `C[CH2][Ge]1([CH2]C)[CH2]CC2(CCN(CCCN(C)C)C2)C[CH2]1`, the survivor count (T/C endpoint: mean tumor weight, dose: 100.0 mg/kg/injection, schedule: Q02DX011 (ip), vehicle: saline, higher T/C = larger tumour) is reported as 2 of 9 on day 22.
On to `CCOC(=O)C(CC(C)C)NC(=O)C(Cc1ccc(N(CCCl)CCCl)cc1)NC(C)=O` (stereo not given), for which the T/C (T/C endpoint: median survival time, dose: 32.0 mg/kg/injection, schedule: Q01DX009 (ip), vehicle: saline with Tween-80, higher T/C = longer survival) is 129 and 133 % of control. The survivor count (T/C endpoint: median survival time, dose: 64.0 mg/kg/injection, schedule: Q01DX009 (ip), vehicle: saline with Tween-80, higher T/C = longer survival) was 8 of 10 on day 9 and the survivor count (T/C endpoint: median survival time, dose: 128.0 mg/kg/injection, schedule: Q01DX009 (ip), vehicle: saline with Tween-80, higher T/C = longer survival) was 0 of 10 on day 9.
Take `CO[C@@]12[C@H](COC(N)=O)C3=C(C(=O)C(C)=C(N)C3=O)N1C[C@@H]1N[C@@H]12`: the T/C (T/C endpoint: median survival time, dose: 1.5 mg/kg/injection, schedule: Q04DX006 (ip), vehicle: saline, higher T/C = longer survival) was 130 % of control.
Turning to `Cc1c(N)nc([C@H](CC(N)=O)NC[C@H](N)C(N)=O)nc1C(=O)N[C@H](C(=O)N[C@H](C)[C@@H](O)[C@H](C)C(=O)N[C@H](C(=O)NCCc1nc(-c2nc(C(=O)NCCC[S+](C)C)cs2)cs1)[C@@H](C)O)C(OC1OC(CO)C(O)C(O)C1OC1OC(CO)C(O)C(OC(N)=O)C1O)c1cnc[nH]1` (stereo not given in full), the T/C (T/C endpoint: median survival time, dose: 6.4 mg/kg/injection, schedule: Q04DX009 (ip), vehicle: saline, higher T/C = longer survival) is 144 % of control and the T/C (T/C endpoint: median survival time, dose: 12.8 mg/kg/injection, schedule: Q04DX009 (ip), vehicle: saline, higher T/C = longer survival) was 128 % of control.
As for `CC1CCC(NC(=O)N(CCCl)N=O)CC1` (stereo not given), the T/C is 131 % of control (T/C endpoint: median survival time, dose: 9.0 mg/kg/injection, schedule: Q01DX003 (ip), vehicle: saline with Tween-80, higher T/C = longer survival); 133 % of control (T/C endpoint: median survival time, dose: 14.0 mg/kg/injection, schedule: Q01DX003 (ip), vehicle: saline with Tween-80, higher T/C = longer survival); 131 % of control (T/C endpoint: median survival time, dose: 18.0 mg/kg/injection, schedule: Q01DX001 (ip), vehicle: saline with Tween-80, higher T/C = longer survival); 143 % of control (T/C endpoint: median survival time, dose: 27.0 mg/kg/injection, schedule: Q01DX001 (ip), vehicle: saline with Tween-80, higher T/C = longer survival); 129 % of control (T/C endpoint: median survival time, dose: 30.0 mg/kg/injection, schedule: Q01DX001 (ip), vehicle: saline with Tween-80, higher T/C = longer survival); 145 % of control (T/C endpoint: median survival time, dose: 30.0 mg/kg/injection, schedule: Q01DX001 (oral), vehicle: saline with Tween-80, higher T/C = longer survival). In addition, the T/C is 143 % of control (T/C endpoint: median survival time, dose: 40.0 mg/kg/injection, schedule: Q01DX001 (ip), vehicle: saline with Tween-80, evaluated on day 65, higher T/C = longer survival); 155, 180, 227 % of control (T/C endpoint: median survival time, dose: 40.0 mg/kg/injection, schedule: Q01DX001 (ip), vehicle: saline with Tween-80, evaluated on day 96, higher T/C = longer survival); 145 % of control (T/C endpoint: median survival time, dose: 60.0 mg/kg/injection, schedule: Q01DX001 (ip), vehicle: saline with Tween-80, evaluated on day 65, higher T/C = longer survival); 176 and 226 % of control [9 of 10 alive on day 96] (T/C endpoint: median survival time, dose: 60.0 mg/kg/injection, schedule: Q01DX001 (ip), vehicle: saline with Tween-80, evaluated on day 96, higher T/C = longer survival). Further, the survivor count is 4 of 9 (T/C endpoint: median survival time, dose: 10.0 mg/kg/injection, schedule: Q02DX011 (ip), vehicle: Klucel (hydroxypropylcellulose) (HPC), higher T/C = longer survival); 0 of 10 on day 77 (T/C endpoint: median survival time, dose: 20.0 mg/kg/injection, schedule: Q04DX005 (ip), vehicle: other, higher T/C = longer survival); 3 of 10 on day 96 (T/C endpoint: median survival time, dose: 60.0 mg/kg/injection, schedule: Q01DX001 (ip), vehicle: saline with Tween-80, higher T/C = longer survival).
For `OC(CBr)C(O)C(O)C(O)CBr` (stereo not given), for the setting “T/C endpoint: median survival time, dose: 240.0 mg/kg/injection, schedule: Q04DX009 (ip), vehicle: saline with Tween-80, higher T/C = longer survival”, the T/C was 137 % of control.
